Laboratory results as given in patent US20260365670A1, “EGFR INHIBITORS AND USES THEREOF” (DIZAL (JIANGSU) PHARMACEUTICAL CO., LTD., priority 2022, published 2026).
Where two headings read alike, the source gives them in different places. At least one read-out could not be matched to a standard name with certainty.

Tested on: Ba/F3 cells expressing EGFR mutations
Experiment: Cell proliferation assay, Ba/F3 cells expressing EGFR mutations (CellTiter-Glo, 72 hours)
Type: cell-based
Settings: BaF3 cells
Method: Biological Example 2: Cell Proliferation Assays
Ba/F3 cells expressing EGFR mutations were seeded in 384-well plates at 5000 cells/well in RPMI1640 medium containing […]. PC-9 at 500 cells/well was seeded into 384-well plates in RPMI1640 medium with 10% FBS. After overnight incubation, the assay plates were dosed with compounds at a series of concentrations. Alongside dosing the assay plates, the day 0 plate was processed using CellTiter-Glo® Luminescent Cell Viability Assay (Promega) to measure the number of viable cells (G0). The assay plates were further incubated for 72 hours and the number of viable cells (G3) was measured. The percentage of proliferation was calculated as: […]=100×(G3 value of sample well−G0 value)/(G3 value of DMSO control−G0 value). The concentration of compound producing 50% proliferation inhibition (GI50) was further calculated in best-fit curves using XLFit software. N/A=not available.

SMILES: Cn1ncc2c1OCCN1CC3CCC(C3)(C1)n1c(nc3ccc(N4CCC(N5CC(F)C5)C4)cc31)NC(=O)c1cc-2c(=O)n(C)c1 (single isomer, unassigned) [Example A94B, 5-[3-(3-Fluoroazetidin-1-yl)pyrrolidin-1-yl]-15,21-dimethyl-23-oxa-2,9,11,15,20,21,26-heptaazaheptacyclo[24.4.1.1^{1,28}.1^{13,17}.0^{2,10}.0^{3,8}.0^{18,22}]tritriaconta-3,5,7,9,13,17(33),18(22),19-octaene-12,16-dione]
- GI50 (EGFR DEL19-C797S, CellTiter-Glo, read-out: DEL19-C797S/BaF3 GI50): 0.7 nM
- GI50 (EGFR L858R-C797S, CellTiter-Glo, read-out: L858R-C797S/BaF3 GI50): 7 nM

SMILES: CN(C)C1CN(c2ccc3nc4n(c3c2)C23CCC(CN(CCOc5c(cnn5C)-c5cc(cn(C)c5=O)C(=O)N4)C2)C3)CC1(F)F (single isomer, unassigned) [Example A99B]
- GI50 (EGFR L858R, CellTiter-Glo, read-out: L858R/BaF3 GI50): 3.9 nM
- GI50 (EGFR L858R-T790M, CellTiter-Glo, read-out: L858R-T790M/BaF3 GI50): 39 nM

SMILES: COCCN(C)c1ccc2nc3n(c2c1)C12CCC(CN(CCOc4c(cnn4C)-c4cc(cc(C)n4)C(=O)N3)C1)C2 (single isomer, unassigned) [Example B46B]
- GI50 (EGFR L858R - C797S, read-out: GI50 L858R - C797S/BaF3): 30 nM
- GI50 (EGFR L858R - T790M, read-out: GI50 L858R - T790M/BaF3): 3 nM
